# Data: PubChem BioAssay AID504894 (National Center for Advancing Translational Sciences (NCATS), 2011)
# Among all 330,000 compounds or so, fewer than 10 were called active. The shares of active, inactive and inconclusive entries below differ from those in the screen. Calls come from the whole dose curve; as a rule, active = well fitted activation curve with a large enough effect; inconclusive = small, poorly fitted or top-dose-only effect, or another doubt; inactive = no such curve, though single readings can be large or run the other way. Potencies of inconclusive entries are doubtful fits and often do not repeat.
# Test: Activators of T cell receptors: qHTS campaign; for activation of IL-2 secretion: % of control where 0% means no effect
# Details: primary human leukocytes, anti-CD3, IL-2 HTRF, 48 h; activation of IL-2 secretion: at the top concentration
# Text: Normally activation of naive T cells requires two signals. 1. A signal through the T cell receptor (TCR) which provides antigen specificity to the response. 2. Signals through co-stimulatory molecules, which are necessary for proliferation, survival and cytokine production. In the absence of co-stimulatory signals T cells are not effectively activated, and may even be rendered anergic or unresponsive to subsequent signaling. This lack of costimulation has been shown in multiple model systems to be a major factor in the limited strength and effectiveness of anti-tumor T cell responses. The goal of this project is to identify small molecule compounds that will stimulate T cell activation in the presence of TCR signaling but in the absence of co-stimulatory signals, thereby allowing activation of naive T cells in the absence of co-stimulation. Identification of such compounds would have clear experimental and clinical applications in instances where desirable antigen-specific immune responses are not generated due to a lack of co-stimulation, for example in the generation of anti-tumor responses. In collaboration between the National Cancer Institute and NIH Chemical Genomics Center, a high-throughput amenable screen was developed to discover small molecules that co-stimulate and activate human T cell receptors. The screen will be carried out using a novel homogeneous time resolved fluorescence energy transfer (HTRF) assay to measure production of the cytokine IL-2 by activated T cells and will be tested against the NIH Molecular Libraries Small Molecule Repository (MLSMR). NIH Chemical Genomics Center [NCGC] NIH Molecular Libraries Probe Centers Network [MLPCN] MLPCN Grant: MH090820-01 Assay Submitter (PI): Richard Hodes, National Cancer Institute, NIH
# Primary human leukocytes are incubated with a-CD3 beads and compounds for 48 hr. The amount of secreted IL-2 is then assayed with a HTRF IL-2 kit. The presence of IL-2 cytokine captures the detection reagents and brings the a-IL-2-K and a-IL-2-d2 into close proximity. Upon excitation with 320nm light, the europium cryptate is capable of transferring energy to acceptor molecules within close proximity, resulting in acceptor molecule emission at 665nm.
Structure (SMILES),Potency,activation of IL-2 secretion
C[n+]1ccc(/C=C/c2c[nH]c3ccccc23)cc1,"inconclusive: 79.4 µM [activator, single point]",
CS(=O)(=O)c1ccc(C(=O)NCC2(N3CCCCC3)CCCCC2)cc1,"inconclusive: 10 µM [activator, partial curve, poor fit]",
Cc1ccc(-c2nc(C#N)c(NCc3cccc4c3OCO4)o2)cc1,,inactive: 6.32%
CCCNC(=O)c1noc2c1CCc1ccccc1-2,"inconclusive: 14.1 µM [activator, partial curve, poor fit]",
CN(C)c1ccc(C=Nc2ccc(N(C)C)cc2)cc1,"inconclusive: 14.1 µM [activator, partial curve, poor fit]",
CC(C)CCNC(=O)/C=C/c1ccc(Br)cc1,"inconclusive: 15.8 µM [activator, partial curve, poor fit]",
O=C1c2ccccc2NC(c2ccccn2)N1c1ccccc1F (configuration not stated),"inconclusive: 8.91 µM [activator, partial curve, poor fit]",
COc1ccc(/C=N/NC(=O)c2ccccc2F)cc1CN1CCN(c2ccc(F)cc2)CC1,"inconclusive: 1 µM [activator, single point]",
Cc1ccc(S(=O)(=O)CCC(=O)Nc2ccc3nc(C)sc3c2)cc1,"inconclusive: 0.794 µM [activator, single point]",
COc1ccc(CNC(=O)C[C@H]2C[C@H](C(=O)N3CCCCC3)[C@@]3(C)c4[nH]c5cc(-c6ccco6)ccc5c4CCN3C2=O)cc1OC,"inconclusive: 31.6 µM [activator, single point]",
COc1ccc(/C(O)=C2\C(=O)C(=O)N(c3cc(C)on3)C2c2ccccc2OC)cc1C (configuration not stated),,inactive: -0.762%
C=CCNC(=S)Nc1ccc2nsnc2c1,"inconclusive: 63.1 µM [activator, partial curve, poor fit]",
O=C1CC2(CCCCC2)CC(=O)N1CCc1ccccc1,,inactive: 3.54%
CCOC(=O)c1c(C)[nH]c(C(=O)NNC(=O)c2ccc(C(C)(C)C)cc2)c1C,"inconclusive: 5.01 µM [activator, partial curve, poor fit]",
S=C(Nc1ccc2nsnc2c1)N1CCCCC1,"inconclusive: 158 µM [activator, partial curve, poor fit]",
Cn1cnc([N+](=O)[O-])c1S(=O)(=O)Oc1ccc(Cl)cc1,,inactive: -3.82%
Cc1ccc(C(=O)CSc2nnc(-c3ccco3)n2Cc2ccccc2)cc1,,inactive: -2.7%
Cc1cc(SCC(=O)N/N=C/c2ccc(O)c(O)c2)nc2ccccc12,,inactive: 1.61%
Cc1cc(=O)oc2cc(OCC(=O)NCc3ccco3)ccc12,"inconclusive: 4.47 µM [activator, partial curve, poor fit]",
CC(C)CCSc1nc2c(c(=O)[nH]c(=O)n2C)n1CCc1ccccc1,"inconclusive: 5.01 µM [activator, partial curve, poor fit]",
Cc1c(NC(=O)Nc2ccccc2)cccc1[N+](=O)[O-],"inconclusive: 10 µM [activator, partial curve, poor fit]",
CC(C(=O)N=Nc1c(O)[nH]c2ccccc12)n1cnc2ccccc2c1=O (configuration not stated),"inconclusive: 3.55 µM [activator, full curve, poor fit]",
CCCCCOC(=O)Cc1c(O)c2ccccc2n(C)c1=O,,inactive: 1.25%

Structure (SMILES),Potency,activation of IL-2 secretion
Cc1cc(-c2csc(NC(=O)c3ccc(S(=O)(=O)N(C)C)cc3)n2)c(C)n1-c1ccccc1,"inconclusive: 12.6 µM [activator, partial curve, poor fit]",
O=C(NC(=S)N1CCN(c2nc(-c3ccccc3)cs2)CC1)c1cccnc1,"inconclusive: 1.58 µM [activator, full curve, poor fit]",
Cc1ccc(S(=O)(=O)NN2C(=O)/C(=C/c3cccn3C)SC2=S)cc1,"inconclusive: 14.1 µM [activator, partial curve, poor fit]",
Cc1ccccc1-n1c(SCC(=O)c2c(N)n(C)c(=O)n(C)c2=O)nnc1-c1cccnc1,"inconclusive: 2 µM [activator, full curve, poor fit]",
O=C(NNC(=O)c1ccccc1Cl)c1ccncc1,"inconclusive: 12.6 µM [activator, partial curve, poor fit]",
Cc1ccc(S(=O)(=O)N(CC(=O)NCc2ccncc2)C2CCCCC2)cc1,,inactive: -0.601%
CC(=O)Nc1ccc(C(=O)Nc2nc(-c3cc(C)n(Cc4ccccc4)c3C)cs2)cc1,"inconclusive: 79.4 µM [activator, partial curve, poor fit]",
CCOC(=O)c1oc2c(CN3CCN(C)CC3)c(O)ccc2c(=O)c1-c1ccc(Br)cc1,"inconclusive: 7.08 µM [activator, partial curve, poor fit]",
Nc1n[nH]c(N)c1N=Nc1ccc2c(c1)OCO2,,inactive: 9.69%
Brc1ccc(-c2nnc(-c3ccccc3)o2)o1,"inconclusive: 3.98 µM [activator, partial curve, poor fit]",
COc1ccc(-c2sc3ccc(OC)cc3c2-c2ccc(OCCN3CCOCC3)cc2)cc1,"inconclusive: 5.01 µM [activator, full curve, poor fit]",
CCCCn1c(=NC(=O)c2cccnc2)c(C(=O)OCC)cc2c(=O)n3ccccc3nc21,,inactive: 1.15%
CNC(=S)N1N=C(c2ccc(Br)cc2)CC1c1ccc(OC)cc1 (configuration not stated),"inconclusive: 158 µM [activator, partial curve, poor fit]",
CCN1CCN(C(=O)Nc2ccccc2OC)CC1,"inconclusive: 11.2 µM [activator, partial curve, poor fit]",
O=C(/C=C/c1ccc(Br)o1)NC(c1ccccc1)c1ccccc1,"inconclusive: 12.6 µM [activator, partial curve, poor fit]",
COC(=O)C1C(=O)c2c([nH]c(C(=O)OC3CCCC3C)c2C)CC1C (configuration not stated),,inactive: 5.67%
CC(=O)Nc1ccc(S(=O)(=O)Nc2nnc(CC(C)(C)C)s2)cc1,,inactive: -6.56%
CCOC(=O)CSc1nnc(CNc2cccc(Cl)c2)n1C,"inconclusive: 3.98 µM [activator, partial curve, poor fit]",
O=C1c2ccsc2SCCN1Cc1ccc(Cl)cc1Cl,,inactive: -5.97%
Cc1ccc(C(=O)NNC(=O)CCC(=O)Nc2cc(C)on2)cc1,"inconclusive: 3.16 µM [activator, full curve, poor fit]",
O=C1/C(=C\c2ccc(Br)o2)Cc2ccccc21,"inconclusive: 79.4 µM [activator, single point]",
c1ccc2c(C3=NNC(=NC4CC4)SC3)c[nH]c2c1,"inconclusive: 14.1 µM [activator, partial curve, poor fit]",
CCOc1ccc(C(C)=O)cc1COC(=O)CNC(=O)C12CC3CC(CC(C3)C1)C2,,inactive: 1.3% [at 46.1 µM]

Structure (SMILES),Potency,activation of IL-2 secretion
Nc1nc(NCc2ccco2)nc(N2CCCCC2)c1[N+](=O)[O-],"inconclusive: 12.6 µM [activator, partial curve, poor fit]",
Cc1cc(C)c(C#N)c(SCCS(=O)(=O)Cc2ccc(Cl)cc2)n1,,inactive: -6.44%
O=C(CSc1cn(CC(=O)N2CCCCC2)c2ccccc12)NCC1CCCO1 (configuration not stated),,inactive: -0.711%
CN(C)c1ccc(NC(=O)COC(=O)Cn2nnc3ccccc32)cc1,"inconclusive: 3.98 µM [activator, full curve, poor fit]",
Cc1ccc(C(=O)/C=C\C(=O)c2ccc(C)cc2)cc1,,inactive: 1.55% [at 46.1 µM]
COc1ccc(CNc2nc3nc(C)c(Cl)c(C)n3n2)cc1,,inactive: -4.68%
N#Cc1ccsc1NC(=O)CN1CCN(S(=O)(=O)c2ccc3ccccc3c2)CC1,"inconclusive: 2.82 µM [activator, full curve, poor fit]",
COc1ccc(C2=NN(C(=O)c3cccs3)C(c3ccc(OC)cc3)C2)cc1 (configuration not stated),"inconclusive: 7.08 µM [activator, full curve, poor fit]",
O=C(CCCN1C(=O)c2ccccc2C1=O)N1CCCCC1,"inconclusive: 2.82 µM [activator, full curve, poor fit]",
CCCCCCCC(=O)NNC(=O)c1ccc(F)cc1,,inactive: 7.41%
COc1ccc(C(=O)N/N=C/c2ccc(SC)cc2)cc1,,inactive: -1.91% [at 46.1 µM]
O=C(Nc1nc(-c2ccco2)c(-c2ccco2)s1)C1CCC1,"inconclusive: 20 µM [activator, partial curve, poor fit]",
O=C(Nc1ccc2nc3ccccc3nc2c1)c1ccccc1,"inconclusive: 14.1 µM [activator, partial curve, poor fit]",
O=C(Nc1ccccc1N1CCCCC1)c1ccc(-c2ccc(Cl)cc2)o1,"inconclusive: 12.6 µM [activator, partial curve, poor fit]",
Cc1cccc(NC(=O)N[C@@H](C)C(=O)O)c1,,inactive: -2.47%
O=c1cc(N2CCc3ccccc32)[nH]c(=O)n1-c1ccccc1,"inconclusive: 11.2 µM [activator, partial curve, poor fit]",
NC(=O)c1ccc(NC(=O)COC(=O)/C=C/c2cn(-c3ccccc3)nc2-c2cccnc2)cc1,"inconclusive: 50.1 µM [activator, partial curve, poor fit]",
CCCCNC(=O)CCn1c(=O)c2ccccc2n(Cc2cc(C)ccc2C)c1=O,"inconclusive: 1 µM [activator, single point]",
COc1ccccc1C(=O)N1CCC(N2CCN(c3ccccc3OC)CC2)CC1,,inactive: 3.37%
COc1ccc(C2CC(=O)C3=C(C2)Nc2ccccc2NC3c2coc3ccccc3c2=O)cc1OC (configuration not stated),"inconclusive: 1.26 µM [activator, single point]",
CC(NC(=S)Nc1ccccc1OC(F)F)C(C)(C)C (configuration not stated),"inconclusive: 11.2 µM [activator, partial curve, poor fit]",

# Pulled by compound from the list above:
Structure (SMILES),Potency,activation of IL-2 secretion
CCCCCCCC(=O)NNC(=O)c1ccc(F)cc1,,inactive: 7.41%
Cc1ccc(C(=O)/C=C\C(=O)c2ccc(C)cc2)cc1,,inactive: 1.55% [at 46.1 µM]
CCOc1ccc(C(C)=O)cc1COC(=O)CNC(=O)C12CC3CC(CC(C3)C1)C2,,inactive: 1.3% [at 46.1 µM]
